Measurements reported in PMC12517396.
These are yes or no findings as the source states them, for the method shown. In cells and extracts the contact can be indirect. Some entries that bind do so weakly or less than the wild type.

The chains behind the UniProt entries cited, without tags or fusion partners.
UniProt Q9Y297: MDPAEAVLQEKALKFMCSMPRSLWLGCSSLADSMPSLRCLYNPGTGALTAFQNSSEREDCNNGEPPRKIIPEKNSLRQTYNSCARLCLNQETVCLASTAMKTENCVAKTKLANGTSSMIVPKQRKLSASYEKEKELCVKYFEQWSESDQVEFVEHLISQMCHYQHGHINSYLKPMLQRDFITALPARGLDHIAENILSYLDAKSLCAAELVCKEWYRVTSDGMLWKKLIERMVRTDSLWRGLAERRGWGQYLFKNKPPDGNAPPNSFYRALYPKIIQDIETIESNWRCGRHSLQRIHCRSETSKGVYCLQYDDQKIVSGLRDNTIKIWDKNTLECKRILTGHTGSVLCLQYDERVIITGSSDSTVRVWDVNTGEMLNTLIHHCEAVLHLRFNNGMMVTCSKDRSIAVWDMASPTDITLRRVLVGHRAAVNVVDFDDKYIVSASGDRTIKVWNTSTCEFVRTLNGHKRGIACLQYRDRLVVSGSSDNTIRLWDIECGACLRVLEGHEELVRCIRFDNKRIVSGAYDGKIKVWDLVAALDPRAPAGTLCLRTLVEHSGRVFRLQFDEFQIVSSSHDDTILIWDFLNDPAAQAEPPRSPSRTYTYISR

Target: T1, Tumor necrosis factor-α induced protein 8 like-2 (TIPE2) (human (endogenous in BEAS-2B)) (UniProt Q6P589)
T1 sequence: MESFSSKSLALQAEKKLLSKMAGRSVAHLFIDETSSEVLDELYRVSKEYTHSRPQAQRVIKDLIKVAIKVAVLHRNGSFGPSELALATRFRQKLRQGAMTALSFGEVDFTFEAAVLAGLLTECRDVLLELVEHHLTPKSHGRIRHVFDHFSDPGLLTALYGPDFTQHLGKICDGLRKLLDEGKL
Test: co-IP; BEAS-2B cell lysate in Co-IP buffer (120 mM NaCl, 40 mM HEPES pH 7.4, 0.3% CHAPS), primary antibody 1 h, Protein A-Sepharose overnight at 4°C, 5 washes, western blot

E3 ubiquitin ligase β-Transducin Repeat-containing protein (FBW1A) (from UniProt Q9Y297 1-605)
binding: binds
